Laboratory results published in publication PMC4617706.

Sequences of proteins named here, by UniProt entry; tags and fusion partners are left off. A change or cut given only in a name is not applied to a line headed by its entry. A line that says so, or that is headed by a name, gives the form on record, which may keep a tag or linker.
GST-fused NINL^isoB_538-825aa (Q9Y2I6, form named): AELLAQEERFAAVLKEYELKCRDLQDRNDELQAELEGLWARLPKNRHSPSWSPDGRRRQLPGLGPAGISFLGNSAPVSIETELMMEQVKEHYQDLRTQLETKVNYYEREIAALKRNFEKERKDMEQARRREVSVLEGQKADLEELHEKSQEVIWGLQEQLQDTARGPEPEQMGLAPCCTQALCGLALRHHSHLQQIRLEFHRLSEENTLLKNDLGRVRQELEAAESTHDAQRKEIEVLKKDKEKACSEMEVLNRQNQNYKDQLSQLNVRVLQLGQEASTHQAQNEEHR
UniProt A4IFE3: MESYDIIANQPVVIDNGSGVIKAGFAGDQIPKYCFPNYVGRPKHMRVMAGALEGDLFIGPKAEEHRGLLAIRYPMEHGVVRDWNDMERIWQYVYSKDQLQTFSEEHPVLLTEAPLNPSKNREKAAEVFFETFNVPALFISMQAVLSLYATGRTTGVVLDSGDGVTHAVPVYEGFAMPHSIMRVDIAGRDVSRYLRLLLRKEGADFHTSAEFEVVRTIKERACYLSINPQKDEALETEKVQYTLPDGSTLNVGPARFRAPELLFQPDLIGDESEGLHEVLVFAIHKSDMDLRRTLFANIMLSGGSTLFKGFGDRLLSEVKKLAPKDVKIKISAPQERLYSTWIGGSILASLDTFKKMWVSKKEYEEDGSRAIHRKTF
UniProt P79136: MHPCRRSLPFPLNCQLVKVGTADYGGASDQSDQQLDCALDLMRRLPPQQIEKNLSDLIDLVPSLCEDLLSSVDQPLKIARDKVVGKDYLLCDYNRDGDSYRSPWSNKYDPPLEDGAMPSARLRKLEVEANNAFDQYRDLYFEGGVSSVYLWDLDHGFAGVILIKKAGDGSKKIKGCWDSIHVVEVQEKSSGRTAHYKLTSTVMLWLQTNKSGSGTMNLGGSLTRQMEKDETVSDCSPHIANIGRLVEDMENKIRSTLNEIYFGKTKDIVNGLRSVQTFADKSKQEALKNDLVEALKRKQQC
UniProt Q3ZBD2: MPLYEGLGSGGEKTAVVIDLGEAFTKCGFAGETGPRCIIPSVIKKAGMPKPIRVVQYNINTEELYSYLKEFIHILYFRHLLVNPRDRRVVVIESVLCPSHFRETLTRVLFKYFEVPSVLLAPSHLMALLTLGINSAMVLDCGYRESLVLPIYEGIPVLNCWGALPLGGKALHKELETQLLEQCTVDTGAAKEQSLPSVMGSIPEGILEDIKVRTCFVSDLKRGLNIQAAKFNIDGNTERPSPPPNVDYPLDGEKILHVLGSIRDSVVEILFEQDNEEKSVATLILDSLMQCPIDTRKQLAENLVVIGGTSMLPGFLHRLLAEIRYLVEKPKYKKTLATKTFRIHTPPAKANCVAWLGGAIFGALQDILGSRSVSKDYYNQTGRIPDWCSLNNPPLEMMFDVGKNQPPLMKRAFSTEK
UniProt Q3ZCF0: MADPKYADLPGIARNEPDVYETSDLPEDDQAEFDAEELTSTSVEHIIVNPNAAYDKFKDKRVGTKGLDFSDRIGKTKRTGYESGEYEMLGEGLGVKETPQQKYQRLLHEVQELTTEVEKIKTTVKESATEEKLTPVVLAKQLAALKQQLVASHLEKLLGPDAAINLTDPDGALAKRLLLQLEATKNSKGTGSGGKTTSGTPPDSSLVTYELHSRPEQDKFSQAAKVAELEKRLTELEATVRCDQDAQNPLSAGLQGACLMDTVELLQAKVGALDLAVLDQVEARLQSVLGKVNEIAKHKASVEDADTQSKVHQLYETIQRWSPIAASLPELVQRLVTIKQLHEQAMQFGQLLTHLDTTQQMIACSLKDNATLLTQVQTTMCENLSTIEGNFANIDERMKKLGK

Target: GST-fused NINL^isoB_538-825aa (human) (UniProt Q9Y2I6)
Experiment: affinity purification with mass spectrometry; GST pull-down from bovine retinal extracts; GST fusion immobilized on glutathione sepharose 4B beads, overnight at 4°C; elution with 100 mM GSH; LC-MS/MS; n = 4, GST alone n = 3; only the target purified

binding, binds:
ARP1B (bovine retina) (from UniProt A4IFE3 1-376)
CAPZB (bovine retina) (from UniProt P79136 1-301)
ARP10 (bovine retina) (from UniProt Q3ZBD2 1-417)
DCTN2 (bovine retina) (from UniProt Q3ZCF0 1-403)

These are yes or no findings as the source states them, for the method shown. Binding seen in cells or lysates may run through a third protein. These calls come from enrichment with a bait or labelling near it, and not all partners need be listed.
